Data from paper PMC9573979.

Protein sequences, listed by entry. Tags and fused reporters are not part of them.
UniProt P97496: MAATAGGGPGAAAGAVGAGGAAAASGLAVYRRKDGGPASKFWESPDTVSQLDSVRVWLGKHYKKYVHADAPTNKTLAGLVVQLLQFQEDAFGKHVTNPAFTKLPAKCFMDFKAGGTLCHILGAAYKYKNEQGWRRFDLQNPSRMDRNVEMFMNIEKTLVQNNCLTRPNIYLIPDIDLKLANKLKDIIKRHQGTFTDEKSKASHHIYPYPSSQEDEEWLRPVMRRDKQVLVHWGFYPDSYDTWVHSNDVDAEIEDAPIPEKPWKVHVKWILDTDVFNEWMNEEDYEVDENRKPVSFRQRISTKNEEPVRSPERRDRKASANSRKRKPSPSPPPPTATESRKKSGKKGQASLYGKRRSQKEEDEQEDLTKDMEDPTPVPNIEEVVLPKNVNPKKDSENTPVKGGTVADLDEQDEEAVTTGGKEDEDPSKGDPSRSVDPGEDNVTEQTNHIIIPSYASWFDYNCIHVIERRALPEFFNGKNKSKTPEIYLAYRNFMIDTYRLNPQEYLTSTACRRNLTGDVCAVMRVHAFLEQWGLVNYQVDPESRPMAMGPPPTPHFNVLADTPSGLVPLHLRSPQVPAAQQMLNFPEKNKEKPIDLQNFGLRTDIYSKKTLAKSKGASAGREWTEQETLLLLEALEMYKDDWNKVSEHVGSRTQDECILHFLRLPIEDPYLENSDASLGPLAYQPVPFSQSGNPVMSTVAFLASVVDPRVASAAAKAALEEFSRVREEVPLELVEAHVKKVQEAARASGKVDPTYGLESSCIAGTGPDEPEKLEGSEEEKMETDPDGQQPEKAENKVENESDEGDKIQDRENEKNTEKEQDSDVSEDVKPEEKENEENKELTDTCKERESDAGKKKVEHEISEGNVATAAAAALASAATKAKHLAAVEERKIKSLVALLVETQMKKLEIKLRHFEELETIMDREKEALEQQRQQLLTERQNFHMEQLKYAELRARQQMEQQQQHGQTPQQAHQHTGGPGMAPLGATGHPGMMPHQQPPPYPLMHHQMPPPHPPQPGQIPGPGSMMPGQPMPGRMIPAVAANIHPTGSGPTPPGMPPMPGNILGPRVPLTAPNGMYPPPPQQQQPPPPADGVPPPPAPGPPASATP
UniProt Q6PDG5: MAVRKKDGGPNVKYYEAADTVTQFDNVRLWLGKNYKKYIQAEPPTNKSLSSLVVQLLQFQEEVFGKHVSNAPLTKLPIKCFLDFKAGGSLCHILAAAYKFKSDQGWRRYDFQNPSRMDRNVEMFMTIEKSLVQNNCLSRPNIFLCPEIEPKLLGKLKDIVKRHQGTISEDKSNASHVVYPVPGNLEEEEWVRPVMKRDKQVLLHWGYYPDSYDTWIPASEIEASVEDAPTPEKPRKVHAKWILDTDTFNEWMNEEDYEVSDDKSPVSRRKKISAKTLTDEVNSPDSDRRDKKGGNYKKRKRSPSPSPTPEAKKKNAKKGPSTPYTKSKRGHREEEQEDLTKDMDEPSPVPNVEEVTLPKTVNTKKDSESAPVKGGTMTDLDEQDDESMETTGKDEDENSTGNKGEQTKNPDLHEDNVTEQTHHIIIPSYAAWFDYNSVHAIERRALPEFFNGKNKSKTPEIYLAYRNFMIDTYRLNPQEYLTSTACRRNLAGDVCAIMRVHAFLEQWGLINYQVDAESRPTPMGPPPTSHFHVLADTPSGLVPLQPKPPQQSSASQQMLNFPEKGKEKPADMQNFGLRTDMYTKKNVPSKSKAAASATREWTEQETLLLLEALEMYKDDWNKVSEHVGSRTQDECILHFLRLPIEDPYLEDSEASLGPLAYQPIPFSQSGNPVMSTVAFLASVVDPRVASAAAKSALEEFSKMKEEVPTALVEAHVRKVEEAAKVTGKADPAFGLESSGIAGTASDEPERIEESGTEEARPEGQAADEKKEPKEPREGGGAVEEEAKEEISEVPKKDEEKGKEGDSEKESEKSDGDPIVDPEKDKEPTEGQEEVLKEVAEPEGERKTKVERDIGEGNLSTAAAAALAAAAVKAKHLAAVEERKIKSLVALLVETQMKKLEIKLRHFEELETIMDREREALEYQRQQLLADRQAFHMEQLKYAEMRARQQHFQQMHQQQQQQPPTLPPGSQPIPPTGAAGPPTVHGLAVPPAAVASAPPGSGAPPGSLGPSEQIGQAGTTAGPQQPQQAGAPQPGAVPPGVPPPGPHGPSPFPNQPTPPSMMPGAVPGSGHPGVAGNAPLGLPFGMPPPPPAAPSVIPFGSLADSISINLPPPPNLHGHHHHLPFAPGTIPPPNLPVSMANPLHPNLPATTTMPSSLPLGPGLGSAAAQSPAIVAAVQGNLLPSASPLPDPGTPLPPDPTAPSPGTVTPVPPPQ

Legend:
[1] = target: BAF155 (mouse (endogenous in telencephalic tissue)) (UniProt P97496); assay: affinity purification with mass spectrometry; coIP with antibodies against BAF155 and BAF170 from lysates of E13.5 or E17.5 wild-type mouse telencephalic tissue and of cultured NS-5 neural stem cells, followed by mass spectrometry; IgG coIP/MS as control
[2] = target: BAF170 (mouse (endogenous in telencephalic tissue)) (UniProt Q6PDG5); assay: as above

B1: LHX2 (protein, UniProt Q9Z0S2 1-406)
chain: MLFHSLSGPEVHGVIDEMDRRAKSEAPAISSAIDRGDTETTMPSISSDRAALCAGCGGKISDRYYLLAVDKQWHMRCLKCCECKLNLESELTCFSKDGSIYCKEDYYRRFSVQRCARCHLGISASEMVMRARDLVYHLNCFTCTTCNKMLTTGDHFGMKDSLVYCRLHFEALLQGEYPAHFNHADVAAAAAAAAAAKSAGLGSAGANPLGLPYYNGVGTVQKGRPRKRKSPGPGADLAAYNAALSCNENDAEHLDRDQPYPSSQKTKRMRTSFKHHQLRTMKSYFAINHNPDAKDLKQLAQKTGLTKRVLQVWFQNARAKFRRNLLRQENTGVDKTSDATLQTGTPSGPASELSNASLSPSSTPTTLTDLTSPTLPTVTSVLTSVPGNLEGHEPHSPSQTTLTNLF
- binding [1]: binds
- binding [2]: binds

Results are given in words; binding and its absence hold for the method and conditions named. Binding seen in cells or lysates may run through a third protein. Here binding means that the protein was enriched with, or labelled near, the bait; the list need not be complete.
